Reference: PubChem BioAssay AID624297 (National Center for Advancing Translational Sciences (NCATS), 2012)
Where “and” joins values, the source holds several entries; their conditions need not be identical. Identical values can stand only once. Among all 340,000 compounds or so, about 6,200 (1.8%) were called active. This list was built around the results that the source calls inconclusive (neither active nor inactive); the mix of calls is not that of the screen. Calls follow the shape of the dose curve; as a rule, active = well fitted activation curve with a large enough effect; inconclusive = small, poorly fitted or top-dose-only effect; inactive = no such curve, though single readings can be large or run the other way. Where the call is inconclusive, the potency comes from a doubtful curve fit.

Experiment: A quantitative high throughput screen for small molecules that induce DNA re-replication in SW480 colon adenocarcinoma cells. Also: nearly all actives have a fitted effect of over 55% in size. As to re-replication activation: % of control where 0% means no effect.
Conditions: Hoechst DNA content imaging, 48 h; re-replication activation: at 46.1 µM (top of the series) unless noted
Procedure, shortened: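 Compounds, transferred as 23 nL by pin tool, were incubated with cells for 48 hr; DNA content per nucleus was then quantified by Hoechst staining and fluorescence plate imaging.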
Potency is read from the fitted curve at half-maximal effect.

Row | Structure (SMILES) | Potency | re-replication activation
1 | Cc1ccc(-n2nnnc2Sc2ccc(S(=O)(=O)NCCN(C)C)cc2[N+](=O)[O-])cc1 | active: 8.2 µM | –
2 | CCCCCn1c(=NC(=O)c2ccco2)c(C(=O)OCC)cc2c(=O)n3ccccc3nc21 | inconclusive: 18.4 µM [activator, single point] and inconclusive: 29.1 µM [activator, single point] | –
3 | COc1ccccc1NC(=O)c1ccc(Br)c(S(=O)(=O)N2CCCC2)c1 | inconclusive: 23.1 µM [activator, single point] | –
4 | O=C1OC(Nc2ccc3c(c2)OCO3)c2ccccc21 (stereo not drawn) | inconclusive: 25.1 µM [activator, single point] | –
5 | CN(C)c1ccc(/C=N/N=C(N)N)cc1[N+](=O)[O-] | inactive | –
6 | CCC(CC)c1nn2c(N)c(/C=C3\C=Nc4ccccc43)c(=O)nc2s1 | inconclusive: 29.1 µM [activator, single point] | –
7 | COCC(=O)N1CCCc2ccccc21 | inconclusive: 13 µM [activator, partial curve, poor fit] | –
8 | CCOc1ccc2[nH]cc(C(=O)NCc3ccc(F)cc3)c(=O)c2c1 | inconclusive: 1.16 µM [activator, full curve, poor fit] | –
9 | Cc1ccc(N2CC(C(=O)Nc3ccc(S(=O)(=O)N4CCCC4)cc3)CC2=O)cc1 (stereo not drawn) | inconclusive: 18.4 µM [activator, partial curve, poor fit] | –
10 | CCOc1ccc(N2CC(C(=O)NCCc3ccccc3)CC2=O)cc1 (stereo not drawn) | inconclusive: 29.1 µM [activator, partial curve, poor fit] | –
11 | O=C(CNc1ccccc1)N/N=C/c1cn(-c2ccccc2)nc1-c1ccccc1 | inconclusive: 29.1 µM [activator, partial curve, poor fit] | –
12 | O=C(CCl)N1CCN(S(=O)(=O)c2ccc3ccccc3c2)CC1 | inconclusive: 18.4 µM [activator, single point] | –
13 | NNC(=O)CNC(c1ccccc1)c1cc(Br)ccc1NC(=O)c1cccc(Cl)c1 (stereo not drawn) | inconclusive: 20.6 µM [activator, single point] | –
14 | COc1ccccc1N(C)S(=O)(=O)c1ccc(C(=O)N(C)Cc2ccc(OC(F)F)cc2)cc1 | inconclusive: 25.9 µM [activator, partial curve, poor fit] | –
15 | CCOC(=O)C1CCCN(C(=O)c2cn(C)c3ccc(S(=O)(=O)N4CCCC4)cc3c2=O)C1 (stereo not drawn) | inconclusive: 18.4 µM [activator, partial curve, poor fit] | –
16 | COc1cc(/C=C(\C#N)c2[nH]nc(N)c2C#N)cc(OC)c1O | inconclusive: 29.1 µM [activator, single point] | –
17 | Cc1ccc(S(=O)(=O)NCc2nc3nc(C)cc(C)n3n2)c(C)c1 | inactive | –
18 | COc1ccnc(N2CCN(c3cccc(C(F)(F)F)c3)CC2)c1C#N | inconclusive: 14.6 µM [activator, single point] | –
19 | COc1ccc(-c2nc(NC(=O)c3ccc(OCC(=O)N4CCOCC4)c(OC)c3)sc2C)cc1 | inactive | –
20 | Cc1ccccc1OCCNC(=O)CNC(=O)c1ccccc1O | inactive | –
21 | CC1CCCN(C(=O)Cn2nnc(-c3ccc(S(C)(=O)=O)cc3)n2)C1 (stereo not drawn) | inconclusive: 11.6 µM [activator, single point] | –
22 | Cn1c(C(=O)O)cc2c(=O)n3ccccc3nc21 | inconclusive: 29.1 µM [activator, single point] | –
23 | Cc1ccccc1NC(=O)CC1C(=O)NCCN1C(=O)c1cccc(Cl)c1 (stereo not drawn) | inactive | –

Row | Structure (SMILES) | Potency | re-replication activation
24 | CCOC(=O)/C(=N\Nc1cc(Cl)ccc1Cl)N1CCOCC1 | inconclusive: 4.11 µM [activator, single point] | –
25 | CC(=O)c1ccc(N2Cc3ccccc3/C2=N\C(=O)Nc2ccccc2)cc1 | inconclusive: 2.91 µM [activator, partial curve, poor fit] | –
26 | O=C(O)/C=C/C(=O)c1ccc(O)cc1 | inconclusive: 9.2 µM [activator, partial curve, poor fit] | –
27 | COc1cc(C)c(CN2CCC(n3nccc3NC(=O)C3CCOC3)CC2)cc1C (stereo not drawn) | inconclusive: 23.1 µM [activator, single point] | –
28 | CCOC(=O)c1cc2c(OC)ccc(OC)c2n1CC(=O)c1ccccc1 | inconclusive: 18.4 µM [activator, single point] | –
29 | Cc1nn(-c2cc(N3CCCCC3)ccc2N)c(=O)c2ccccc12 | inactive | –
30 | Cc1cccc(N2Cc3ccc(Br)cc3C2)c1 | inactive | –
31 | COc1ccc([N+](=O)[O-])cc1NC(=O)CSCc1ccccc1 | inactive | –
32 | O=C(CN1CCN(S(=O)(=O)c2ccc(Cl)cc2)CC1)c1ccc(O)c(O)c1 | inconclusive: 29.1 µM [activator, single point] | –
33 | C=CCn1c(SCC(=O)c2ccccc2)nnc1-c1ccc2c(c1)OCO2 | inconclusive: 29.1 µM [activator, partial curve, poor fit] | –
34 | Nc1c2c(nc3ccccc13)CCCC2 | inconclusive: 29.1 µM [activator, single point] | –
35 | CC1Cc2ccccc2N1C(=O)CNc1cccc(S(=O)(=O)N2CCCC2)c1 (stereo not drawn) | inconclusive: 18.4 µM [activator, single point] | –
36 | COC(=O)/C=C/C(=O)N1CCN(c2ccccc2C)CC1 | inconclusive: 16.4 µM [activator, partial curve] | –
37 | CCOC(=O)c1sc(NC(=O)CCN2CCN(CC)CC2)c(C(=O)OCC)c1C | inconclusive: 14.6 µM [activator, single point] | –
38 | CN1CCN(CC(=O)N2c3ccccc3C(C)(c3ccccc3)CC2(C)C)CC1 (stereo not drawn) | active: 20.6 µM | –
39 | CN1C(=O)CC(N2CCN(C(=O)c3ccccc3)CC2)C1=O (stereo not drawn) | inconclusive: 7.31 µM [activator, partial curve, poor fit] | –
40 | CCOc1ccccc1OCCCNCc1ccccc1 | inconclusive: 18.4 µM [activator, single point] | –
41 | O=C(CSc1nnc(Cc2cccs2)n1Cc1ccco1)Nc1cccc(Cl)c1 | inactive | –
42 | N#CC1=C(N)Oc2c(O)cc3ccccc3c2C1c1ccsc1 (stereo not drawn) | inconclusive: 14.6 µM [activator, partial curve] | –
43 | Cc1sc2nc3ccc(NCc4ccco4)nn3c(=O)c2c1C | inconclusive: 20.6 µM [activator, partial curve, poor fit] | –
44 | Cc1cccc(NC(=O)c2ccc(NC(=O)c3ccccc3Br)cc2)c1 | inconclusive: 18.4 µM [activator, partial curve, poor fit] | –
45 | CN1CC(c2ccccc2)C2(SC(=S)N(Cc3ccco3)C2=O)C12C(=O)Nc1ccccc12 (stereo not drawn) | inconclusive: 4.61 µM [activator, full curve] | –
46 | N#C/C(=C/c1ccc(OC(=O)c2ccc(Br)s2)cc1)c1nc2ccccc2[nH]1 | inconclusive: 18.4 µM [activator, single point] | –

Row | Structure (SMILES) | Potency | re-replication activation
47 | N#Cc1cc(Oc2cccc3cccnc23)c(-n2nnc3ccccc32)cc1C#N | inconclusive: 31.6 µM [activator, single point] | –
48 | Clc1ccccc1OCCCCn1ccnc1 | inactive | –
49 | COCC(=O)Nc1ccc(C)c(Cl)c1 | inactive | –
50 | Cc1nnc(N/N=C/c2cccc(OCc3ccc(Cl)c(Cl)c3)c2)n1N | inconclusive: 29.1 µM [activator, single point] | –
51 | CCCc1nc2ccccc2c(C(=O)OCC(=O)N2CCc3ccccc32)c1CC | inactive | –
52 | Cc1cc(C(=O)N/N=C/c2cc(Br)ccc2OC(=O)c2ccccc2)n[nH]1 | inconclusive: 0.731 µM [activator, full curve, poor fit] | –
53 | Cc1ccc(C(=O)NCCC(=O)NCc2cc(=O)n(C)c(=O)n2C)cc1 | inconclusive: 8.2 µM [activator, single point] | –
54 | CCOC(=O)c1c(NC(=O)CSc2nnc(-c3ccccc3)o2)sc(C(C)=O)c1C | inactive | –
55 | COc1cc(C(=O)NNC(=S)NC(=O)c2ccccc2C)cc(OC)c1OC | inactive | –
56 | CCc1nnc(NC(=O)CN2CCN(Cc3cccc(Cl)c3)CC2)s1 | inactive | –
57 | COc1ccc(OC)c(/C=C/C(=O)OCC(=O)Nc2ccc3c(c2)OCCO3)c1 | inconclusive: 25.9 µM [activator, single point] | –
58 | CC(=O)c1sc(N/N=C\c2cccc(Br)c2)nc1C | inactive | –
59 | CC(=O)c1ccc(NC(=O)c2noc(C(C)C)c2[N+](=O)[O-])cc1 | inconclusive: 0.164 µM [activator, full curve, poor fit] | –
60 | COc1cc2c(cc1OC)CN(C1CCC(C)CC1)CC2 (stereo not drawn) | – | inconclusive: 49.4% [activator]
61 | CC(C)N=c1c([N+](=O)[O-])nn(C)n1O | inconclusive: 29.1 µM [activator, single point] | –
62 | CCOC(=O)NC(=O)c1cn(Nc2ccccc2C(F)(F)F)c(=O)[nH]c1=O | inactive | –
63 | Cc1ccc2c(c1)[nH]c1c(N3CCN(Cc4ccccc4)CC3)ncnc12 | inconclusive: 25.9 µM [activator, single point] | –
64 | CCCCn1c(-c2nonc2N)nc2ccccc21 | inconclusive: 20.6 µM [activator, single point] | –
65 | O=C(c1cc2ccccc2o1)N(Cc1ccco1)Cc1cccs1 | inactive | –
66 | N#C/C(=C\c1c(Oc2ccc(Cl)cc2)nc2ccccn2c1=O)C(=O)NC1CCS(=O)(=O)C1 (stereo not drawn) | inconclusive: 2.59 µM [activator, full curve] | –
67 | COc1ccc(C(O)(CCC(C)C)C(CN2CCOCC2)c2ccc(Cl)cc2)cc1 (stereo not drawn) | inconclusive: 29.1 µM [activator, single point] | –
68 | OC(CNCCc1ccc(C(F)(F)F)cc1)COC(c1ccccc1)c1ccccc1 (stereo not drawn) | inconclusive: 23.1 µM [activator, single point] | –
